# Primary screen of a compound library

Results are given as percent effect. The record does not define 0% and 100%; most values in the screen are far below 50% and negative numbers occur (in some assays of this library far below -100). This is an unselected part of the compounds tested. Two or more numbers in one place are separate tests of the same structure; such repeats can differ widely.

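Viability assay of Plasmodium falciparum sporozoites; the read-out is not stated. The concentration is filed as 10 mM, unlikely as a test dose, so the dose is not known. Direction is inferred from retests: higher values go with lower viability. Strong results were mostly tested again. About 34,000 compounds were tested under these conditions; 0.84% (about 280) showed 50% or more at least once.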

SMILES	Percent Effect
Cc1cccc(C(=O)NCc2ccc(S(N)(=O)=O)cc2)n1	11.61
COc1ccc(NC(=O)c2ccc[nH]2)c(N2CCN(C(C)=O)CC2)n1	-7.215
O=C(O)C(F)(F)F.O=C1COC2(CCN(CC3CC3)CC2)CN1c1ccsc1	11.08
CN(CCc1ccccc1)C(=O)c1cccnc1OCC(F)(F)F	0.1004
O=C(c1cccc(-c2ccc(F)cc2)c1)N1CCCC(O)(CO)CC1 (stereo unspecified)	7.538
CCSCCNC(=O)c1cnc(-c2ccccc2)nc1O	2.095
Cc1ccc(C(=O)N2CCC3(CC2)CCN(Cc2ccccn2)C3=O)o1.O=C(O)C(F)(F)F	2.599
O=C(C1CCOC1)N1CCN(Cc2ccc3c(c2)CCO3)CC1 (stereo unspecified)	2.962
[H][C@@]12CCCO[C@]1([H])[C@H](NC(=O)C1CC1)CN2Cc1cccc(C#N)c1	0.722
Cn1nccc1-c1cnc2n1CCC21CCN(C(=O)C2(C)CC2)CC1	8.608
CC(Cn1cccn1)NC(=O)N1CCN(Cc2cccnc2)CC1 (stereo unspecified)	-671.1
O=C(O)C(F)(F)F.O=C(O)C(F)(F)F.[H][C@@]12CCCO[C@]1([H])[C@H](OCc1ccncc1)CN2Cc1ccccc1F	-4.798
O[C@H]1CN(Cc2c[nH]nc2-c2ccccc2)CC[C@@]12CCCO2	16.42
O=C(O)C(F)(F)F.[H][C@@]12C[C@@H](C)O[C@]1([H])CN(C(=O)c1cc(C)nn1CC)C2	0.9418
COc1ccc(CC(=O)N2CCCC(n3nc(C)cc3C)C2)cc1F (stereo unspecified)	3.911
Fc1cccc(OC2CCN(Cc3ncc[nH]3)CC2)c1	8.694
Cc1nc2c(cc1C(=O)O)CCN(Cc1ccsc1)CC2.O=C(O)C(F)(F)F.O=C(O)C(F)(F)F	11.13
COc1ccc(C)cc1CN(C)Cc1nc2c(cnn2C)c(=O)[nH]1	14.1
CC1CN(CC(=O)Nc2ccncc2)CCN1c1nccs1 (stereo unspecified)	7.811
CSC(C)(C)CNC(=O)NC1CCSCC1	-10.09
CCC(CN1CCCC1)NC(=O)C1(c2ccc(F)cc2)CC1 (stereo unspecified)	0.6333
COCC(=O)N1CCN(Cc2coc(-c3cccc(F)c3)n2)CC1	-21.59 & -20.97 & -3.107
Cc1nc(O)c2nnn(C[C@H]3CCCN3C(=O)c3cccs3)c2n1	-4.841
Cc1cccn2cc(CNS(=O)(=O)N3CCOCC3)nc12	0.7785
Cc1cc2nc(SCC(=O)N3CCCC3)n(C(C)C)c(=O)c2[nH]1	-13.87
CN(CC(=O)Nc1ccc(Br)cn1)C(=O)C(C)(C)C	7.164
[H][C@@]12CN(c3nnc(C)s3)C[C@H](C(=O)NCCOC)[C@]1([H])CCO2	-21.11
Cc1ccc(C(CNC(=O)Nc2cn[nH]c2)N2CCOCC2)o1 (stereo unspecified)	5.544
O=C(O)C(F)(F)F.O=C(O)C(F)(F)F.O=C(O)C(F)(F)F.[H][C@@]12CN(Cc3ccncc3)C[C@]1([H])OCCN2CC1CCCO1 (stereo partly specified)	4.637
NC(=O)[C@@H]1Cc2ccccc2CN1CCc1cccs1	-6.9
Cn1nc(COc2cccnc2)c2c1CCN(CC1CC1)C2.O=C(O)C(F)(F)F.O=C(O)C(F)(F)F	8.995
CCCC(=O)N1CCCCC1c1nc(N(C)C)ncc1-c1cc(C)no1 (stereo unspecified)	2.849
O=C(NCc1ccccn1)NC1CCOc2ccccc21 (stereo unspecified)	9.44
O=C(O)C(F)(F)F.[H][C@@]12CC(COCc3cccnc3)C[C@@]1([H])N(C(=O)N(C)C)CCO2 (stereo partly specified)	2.253
c1nc(N2CCCCC2Cn2cncn2)c2ccsc2n1 (stereo unspecified)	-8.584
Cc1ccccc1CN(CCN(C)C)Cc1ccc(O)c(C(=O)O)c1	-19.54
O=c1c2cccnc2cnn1CC(O)c1ccc(Br)cc1 (stereo unspecified)	8.923
CN1CC(=O)N(c2ccsc2)CC12CCN(C(=O)Nc1ccccc1)C2.O=C(O)C(F)(F)F (stereo unspecified)	-13.91
Cc1cc(CN2CCc3nc(C)n(C)c(=O)c3CC2)[nH]n1	-1.088
CCc1nc(C2CCCN2CCCS(N)(=O)=O)no1 (stereo unspecified)	0.1628
CC(C)Cc1nc(OCC(=O)O)c(C#N)c2c1CCC2	2.851
CCNC(=O)COc1cc(CC)c2c(C)nn(-c3ccc(C)cc3)c2n1	3.133
Cc1noc2ncc(C(=O)N3CCCC3c3cnn(C)c3)cc12 (stereo unspecified)	-6.661
CC(C)c1nccn1C1CCCN(C(=O)CCCc2ccccn2)C1 (stereo unspecified)	8.707
CCOc1ccc(CN2CCN(C(=O)c3ccc(C)n3C)CC2)cc1	-26.47
[H][C@@]12CCCCN(C)[C@]1([H])[C@@H](c1ccccc1)CCN2C(=O)c1cnccn1	-18.36
COCCN1CCC2(CC1)CN(C(=O)N(C)C)c1ccc(C)cc12.O=C(O)C(F)(F)F	-4.343
Cc1nc(COC[C@@H]2CCC[C@@]23CNCCO3)cs1.Cl.Cl	0.3356
O=C(c1cc(F)ccc1F)C1CCN(C(=O)c2ccccn2)CC1	2.775
CC(Cn1cccn1)NCC(=O)NCCc1cccs1 (stereo unspecified)	7.23
COc1cc(C)nc(N2CCN(C(=O)c3ccc[nH]3)CC2)n1	4
NC(=O)C1CCN(C(=O)NCc2ccccc2-n2cccn2)C1 (stereo unspecified)	1.314
CC(C)c1noc(C(C)N2CCN(Cc3cccc(C#N)c3)CC2)n1 (stereo unspecified)	-2.236
CN(C)c1ccc(C(=O)N2CCN(Cc3cscn3)CC2)cc1F	-12.44
CC(C)c1nc2c(n1C)CCN(CC(=O)Nc1nccs1)C2	22.2
CS(=O)(=O)NCc1cn2c(n1)CN(Cc1cccnc1)CC2.O=C(O)C(F)(F)F.O=C(O)C(F)(F)F	-5.907
Cc1cc(F)ccc1N1CCCC(NS(=O)(=O)CCCF)C1=O (stereo unspecified)	-2.744
CCc1nc(C2CCCN2C(=O)c2cc(C3CC3)[nH]n2)no1 (stereo unspecified)	-10.29
CN1CCN(C(=O)CCn2ncc3ccccc32)CC(C(N)=O)C1 (stereo unspecified)	2.374
CC1CN(C)CCN1CC(=O)NCCOc1cccc(F)c1 (stereo unspecified)	4.021
Cc1cc(C)cc(C(=O)Nc2cn[nH]c2)c1	14.8
CC(C)=CCCC1(C)C=Cc2c(cc(C)n(CCC(=O)O)c2=O)O1 (stereo unspecified)	0.6113
O=C(NCCNc1ccc(C(F)(F)F)cn1)c1cncc(Br)c1	-4.624
COc1ccc(C(=O)N2CC[C@H](CO)[C@H](O)C2)c(C)c1	-2.807
Cc1n[nH]c(C)c1CNc1nc(-c2ccco2)nc2c1CCNCC2	7.617
CN(C)CCNc1c(-c2ccccc2)c(=O)c1=O	-2.059

From ChEMBL document CHEMBL3988442, “University of Dundee, Small-Polar-MMV Screening Library” (2021).